# Results from one PubChem assay

Source: PubChem BioAssay AID1159506 (NCATS, 2015).

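Genome-wide siRNA knockdown in TC32 Ewing sarcoma cells, comparing luciferase light from an NR0B1-promoter reporter with a CMV-promoter reporter 48 hours after transfection. Each siRNA was applied at 20 nM. A z-score of the log NR0B1-over-CMV signal, less the median of siRNAs with the same seed; more negative means a stronger specific loss of the NR0B1 reporter.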

This is part of the screen; most of the strongest results are not listed here. Sequences are the guide (antisense) strand, without overhang.

Sequence,gene,seed-corrected z-score
UUACUAGAAAGAUUGAGUC,LRRC40,-0.7058
UCAUCUAUCUGGUUCCACC,TVP23A,0.5066
AUAGUUUCAACAAGGCUAU,PCDHA8,-0.4956
UAUCCAUCUACCAUAUUCC,DCBLD1,-0.09612
AAAUAUAUCACCAUGUGAU,OR7A5,1.28
UAUGUAUCAAAGCAUCUGC,OR5W2,-0.5276
UAUCGGAAUUGGGAGAUGC,FAM234B,0.1588
UUUCCUAAAGUAACCUGGG,RPL27AP2,-0.1673
UGCCUAAUCAGGUCUGAAC,ZNF623,-0.08281
UCUAUGUUGAUUAUGGUCC,ZNF585B,-0.472
AAUGUUCCAACCACCAAUC,ECE2,-0.1634
UUAUUGAGACCGGUUAGAC,PGAM1,0.09257
UGUUGUAAUCGUCAAAUCG,FSTL4,-1.008
UUAACUCCCAUAGCACAGC,ADH1A,-0.09512
UUAAUAUCAGUCUCCAUUU,LOC646644,0.5891
UUUGUCCACACUGAGCCUC,LMAN1,-0.9903
ACUGUCCACACCUUGCUCC,OAF,-1.016
UCAAAGUCGAGGUCGUCGC,SLC32A1,0.1551
UUUUCGAAGUUUGUUAGCC,DDX60,0.2888
UACAAUUUAUUUCCGAGUC,C14orf80,0.003521
UCAUCGCUGAUGACACUGG,NUAK1,0.1435
UUGUCGUACAUUUCAGCUG,SGK1,-0.3416
UUACGAUAAAAGGCUUUGC,ZNF720P1,0.6699
UCCUUCGACAGCUUCGUUG,NUDT16L1,0.3479
UAGUAGUGCAGAUCAAUGG,NUP85,-0.2974
UUUCGAUAUUCUGCUACUC,PLPPR5,-0.6988
UGAAGAAUGGAGAAAGUUC,ZNF83,0.8854
AAAGUUUUUGGUGAAUGAC,ZNF341,0.1994
ACUUCGACCACUAAAUAGC,WDR25,0.5145
UCUGAUCUCUAGUAGUUGC,BRINP3,-0.2651
AAAUCUUUCCGGGUUGUCG,TRIML1,-1.198
AAAAGGUCCCGAGUUCUGU,H6PD,0.37
UUUGUUCUCUAGGAGUCGC,LSG1,-0.2693
UAUCAAAUUCGUCUUGUUC,C17orf53,0.5672
UUAGGCUUCAGAGGAAACG,FOXD2,-1.161
AUAAUGUCCGUGAGUAUCU,COASY,-1.015
UGUCUUCAUAGUGACCUUG,BPIFB6,-1.361
UCCCUAAUAUGUUUGGUUC,OR52E6,-0.0385
UCACUUUGCGCAGUUCCUC,KRT80,-1.6
UCUGCUAAAACCAAGGGCG,ABO,-0.4349
ACUAUUAUGAUCUUUUUCC,SLU7,-1.217
UAUCAAGAUAUGACAAUAC,MTA3,0.06445
UCUGUGAACCUGGUUUCGC,TRPC4AP,0.03707
UAACAUGGCGUCUUUGACA,ROCK1P1,-0.2589
UAUGCUCAGAAGGUAAGUC,ZNF792,-0.6023
AAUCUGACUCCAUCUAACC,IBTK,0.2062
UUGUCUUCAUGCAAGUUGC,LOC401478,-0.6221
UUGUUGUAGACCCUCAUCU,GALNT9,0.03938
AUAAUUGCGAAAGGUAGGG,MRRF,-1.786
AAUGAGGUCUUGCUCCUCC,UBAP1L,-0.5018
UCUUGUGCAGCUUCCAUGC,LRRC37A4P,-0.05212
UUUUGCAUGAUGCAGAUAC,HAS2,-0.2556
UCUACUUCCAGGAUACGUC,CCDC77,0.5836

Some entries from above, unchanged:

{"sequence": "UUUCGAUAUUCUGCUACUC", "gene": "PLPPR5", "seed-corrected z-score": "-0.6988"}
{"sequence": "UCUACUUCCAGGAUACGUC", "gene": "CCDC77", "seed-corrected z-score": "0.5836"}
{"sequence": "UCUGUGAACCUGGUUUCGC", "gene": "TRPC4AP", "seed-corrected z-score": "0.03707"}
{"sequence": "UAUCCAUCUACCAUAUUCC", "gene": "DCBLD1", "seed-corrected z-score": "-0.09612"}
{"sequence": "UUUCCUAAAGUAACCUGGG", "gene": "RPL27AP2", "seed-corrected z-score": "-0.1673"}
{"sequence": "UCAAAGUCGAGGUCGUCGC", "gene": "SLC32A1", "seed-corrected z-score": "0.1551"}